The list shows a part of the results. Further columns of the screen follow, without active or inactive calls. The list favours compounds with an active or inconclusive main result. Words in brackets tell the shape of the fitted curve; partial curves, single points and poor fits give uncertain potencies.
Test: qHTS Assay for Lipid Storage Modulators in Drosophila S3 Cells;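 on cell number change: cells counted by Cell Tracker Red CMTPX staining in the red channel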
Details: BODIPY lipid droplet fluorescence, 18-24 h; for cell number change: measured here: cell count max response, cells fed with added oleic acid
Procedure, shortened: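 Drosophila S3 cells got compounds at several concentrations plus oleic acid (400 uM solution). Laser-scanning cytometry with 488 nm excitation read lipid droplets at 500-530 nm and cells at 575-640 nm. Percent activity was relative to 20 uM Triacsin C.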

[1] = measured here: cell number channel AC50, cells fed with added oleic acid
[2] = measured here: lipid fluorescence (Fed channel) AC50, cells fed with added oleic acid

SMILES | cell number change [%] | AC50 [1] | AC50 [2]
Cc1[nH]nc2c1-c1nc3ccccc3nc1C(C)(C)C2 | -36.5 | 18400 nM [falling, single point] | 
COc1ccc(C)cc1NC(=O)c1ccc(S(=O)(=O)N2CCOCC2)cc1 | -3.98 |  | 6510 nM [rising, single point]
CCOC(=O)C1=C(c2ccccc2)NC(N)=NC1c1ccc(OCc2ccc(C(=O)OC)cc2)cc1 (configuration not stated) | -67.1 | 25900 nM [falling, single point] | 29100 nM [falling, single point]
O=C(NC(c1ccccc1)c1ccccc1)c1ccc(CO)cc1 | -4.44 |  | 29100 nM [rising, single point]
CCOc1ccc(S(=O)(=O)Nc2cc(C)ccn2)c2ccccc12 | 19.5 | 651 nM [rising, full curve, poor fit] | 2060 nM [rising, partial curve]
Cc1ccc(S(=O)(=O)NCC2CCC(C(=O)NCCCN3CCOCC3)CC2)cc1 (configuration not stated) | 2.84 |  | 206 nM [falling, full curve]
COc1ccc(-c2cnnn2-c2ccc(NC(=O)c3ccco3)cc2)cc1OC | 35 | 3260 nM [rising, full curve] | 
O=C(Nc1ccc2c(c1)OCCO2)C1CC(O)CN1C(=O)Nc1ccccc1 (configuration not stated) | 22.3 |  | 
CCOc1ccccc1NC(=O)CN1C(=O)NC(Cc2c[nH]c3ccccc23)C1=O (configuration not stated) | 9.65 | 6510 nM [rising, single point] | 
O=C(NCc1ccccn1)C(=O)Nc1cc2c3c(c1)CC(=O)N3CCC2 | 40.7 | 2060 nM [rising, full curve] | 
NC(=O)c1ccc(NC(=O)COc2cccc3c2CCNC3=O)cc1 | 36 | 20600 nM [rising, single point] | 
CC(C)[C@H](NC(=O)Nc1cccc(Br)c1)C(=O)O | -1.15 |  | 146 nM [falling, full curve]
c1ccc(Cn2nnc3cnccc32)cc1 | -0.803 |  | 20600 nM [falling, partial curve, poor fit]
Cc1cc(C)c(S(=O)(=O)N2CCOC2CNC(=O)C(=O)NCc2cccnc2)c(C)c1 (configuration not stated) | 24.8 | 3660 nM [rising, full curve, poor fit] | 291 nM [rising, full curve, poor fit]
COc1cc(CCC(=O)Nc2ccc(Cl)c(C(F)(F)F)c2)cc(OC)c1OC | 41.2 | 14600 nM [rising, single point] | 14600 nM [rising, partial curve]
CC1(C)Cc2c(c(N3CCOCC3)nc3sc(C(N)=O)c(N)c23)CO1 | 1.52 |  | 1640 nM [falling, partial curve, poor fit]
O=C(Nc1ccc(Cl)cc1)Nc1cc(S(=O)(=O)N2CCOCC2)ccc1N1CCCC1 | 45.9 | 20600 nM [rising, partial curve] | 
CCOc1ccc(-n2c(-c3ccc(Cl)cc3)c[n+]3c2SCC3)cc1 | -32.5 | 5.17 nM [falling, full curve, poor fit] | 820 nM [falling, full curve, poor fit]
CCOc1ccc(C(=O)/C=C/c2cc(OC)c(OC)c(OC)c2)cc1 | 13.8 |  | 20600 nM [rising, partial curve]

Single entries from above:
In cell number change [%], CCOc1ccc(C(=O)/C=C/c2cc(OC)c(OC)c(OC)c2)cc1 is listed with 13.8
In cell number change [%], CCOC(=O)C1=C(c2ccccc2)NC(N)=NC1c1ccc(OCc2ccc(C(=O)OC)cc2)cc1 (configuration not stated) is listed with -67.1
In AC50 [1], Cc1cc(C)c(S(=O)(=O)N2CCOC2CNC(=O)C(=O)NCc2cccnc2)c(C)c1 (configuration not stated) is listed with 3660 nM [rising, full curve, poor fit]

Going on with the list:

SMILES | cell number change [%] | AC50 [1] | AC50 [2]
CCOc1ccc2ccccc2c1/C=N\NC(=O)c1ccc([N+](=O)[O-])cc1 |  |  | 259 nM [falling, full curve]
NC(=O)c1ccc(Cl)c2ccccc12 | 16.1 |  | 2310 nM [rising, single point]
Cc1nc(N)sc1-c1csc(Nc2ccc(S(N)(=O)=O)cc2)n1 | -16.4 |  | 
Cc1ccc(CNC(=O)CCCc2c[nH]c3ccccc23)cc1 | 24.4 | 1840 nM [rising, partial curve, poor fit] | 5170 nM [falling, single point]
COC(=O)c1nc(NC(=S)NC(=O)c2cccs2)sc1C | -25.2 |  | 6510 nM [falling, single point]
CC(C)C(NC(=O)C1CCC(C(C)(C)C)CC1)C(=O)NCc1cccnc1 (configuration not stated) |  |  | 4110 nM [rising, single point]
CC(=O)N1c2ccc(S(=O)(=O)N3CCCC3)cc2CC1C(=O)NCc1ccccc1F (configuration not stated) |  | 731 nM [falling, single point] | 7310 nM [rising, partial curve]
O=C(c1ccc(COc2ccc(Cl)cc2)o1)N1N=C(C(F)F)CC1(O)C(F)F (configuration not stated) | -84.1 | 6510 nM [falling, partial curve] | 6510 nM [rising, single point]
COc1ccc(C2CC(c3cccs3)=NN2c2nc(-c3ccccc3)cs2)cc1OC (configuration not stated) |  |  | 184 nM [rising, full curve, poor fit]
CC1(C(=O)NCc2cccnc2)CCC(=O)N1CCc1ccccc1 (configuration not stated) | 12.2 |  | 29.1 nM [rising, full curve, poor fit]
O=C(NOCc1ccccc1)c1ccc(Cl)cc1 | 3.98 |  | 5.17 nM [rising, full curve, poor fit]
O=C(CSc1nnc(-c2ccccc2Br)o1)N1CCOCC1 | 9.21 |  | 
O=C(CCC(=O)Nc1ccc(F)cc1)N/N=C/c1ccc(Br)cc1 | -1.8 |  | 6510 nM [rising, single point]
O=C(Nc1cc(Sc2nc3ccccc3s2)cc([N+](=O)[O-])c1)c1cccc(F)c1F | -1.97 |  | 1300 nM [rising, full curve, poor fit]
CC1CCCC(NC(=O)C2CC(=O)N(Cc3ccccc3)C2)C1C (configuration not stated) | 2.44 |  | 116 nM [falling, full curve, poor fit]
C=CCNC(=O)c1ccccc1NC(=O)Nc1ccccc1 | 7.29 |  | 1030 nM [rising, full curve]
CCOCCCN(C)C1CCN(C(=O)c2oc3ccccc3c2NC(=O)Cc2cccc([N+](=O)[O-])c2)CC1 | 18.6 | 517 nM [rising, partial curve, poor fit] | 29100 nM [rising, single point]
CC(=O)Nc1sc(C)c(C)c1C(=O)OCC(=O)NCc1ccc(Cl)cc1 | 10.8 | 651 nM [rising, partial curve, poor fit] | 2910 nM [falling, partial curve]
CCCc1cc(Nc2cccc(OC)c2)n2ncnc2n1 |  |  | 2060 nM [rising, single point]

SMILES | cell number change [%] | AC50 [1] | AC50 [2]
Cc1cc(-c2ccc(N3C(=O)CCC3=O)c(C)c2)ccc1N1C(=O)CCC1=O | -0.455 |  | 
CCNc1ccc(N=Nc2c(C)n(C)n(-c3ccccc3)c2=O)cc1 | -26.9 | 3660 nM [falling, single point] | 
O=C(NCc1ccccn1)c1cc(-n2cnnc2)ccc1Cl | -4.77 |  | 2590 nM [falling, partial curve, poor fit]
CCn1nc(C)cc1C(=O)Sc1cccc(Br)c1 | -4.91 |  | 29100 nM [falling, single point]
COc1cccc(CN(C)CC(=O)NC(=O)NCc2ccco2)c1 | 32.9 | 20600 nM [rising, single point] | 23100 nM [rising, single point]
CCc1nnc(NC(=O)CN2CCN(Cc3ccc(F)cc3)CC2)s1 | 30.4 | 29100 nM [rising, single point] | 
COc1ccc([C@]23Cc4c(ccc5ccccc45)C(O2)C2=C(CCCC2=O)O3)cc1 | 31.4 | 2370 nM [rising, partial curve] | 5310 nM [rising, single point]
COc1ccc(-c2csc(NC(=O)C3CSC4(C)CCC(=O)N34)n2)c(OC)c1 (configuration not stated) | 24.4 |  | 1160 nM [rising, partial curve]
CCOC(=O)N1CCN(CCC(=O)Nc2ccc(C)c(Br)c2)CC1 | -17 |  | 820 nM [falling, single point]
COc1cc2c(cc1OC)CN(C(=O)c1ccccc1C(=O)O)CC2 | -0.881 |  | 6510 nM [falling, single point]
Cc1cccc(NC(=O)c2cc(=O)c3ccccc3o2)n1 | -22 |  | 20600 nM [falling, single point]
COc1ccc(S(=O)(=O)N2CCCCC2)cc1NC(=O)COc1ccccc1 |  |  | 1300 nM [rising, full curve, poor fit]
NC(=S)c1c(Cl)cc(C(F)(F)F)cc1Cl | -8.26 |  | 920 nM [falling, full curve]
CC(=O)c1c(C)[nH]c(C(=O)Nc2cccc(C)c2C)c1C | 5.86 |  | 29100 nM [rising, single point]
NS(=O)(=O)c1ccc(CCNC(=O)COC(=O)COc2cccc(C(F)(F)F)c2)cc1 | 6.92 | 580 nM [falling, single point] | 1640 nM [rising, partial curve, poor fit]
CCOC(=O)c1sc(NC(=O)CSc2nnnn2-c2ccccc2)c(C(=O)OCC)c1C | 31.8 | 651 nM [rising, full curve] | 
COc1ccc(NC(=O)c2c3c(nc4ccccc24)CCC3)cc1S(=O)(=O)N1CCOCC1 | 11.6 |  | 461 nM [rising, full curve]
O=C(O)CCC(=O)NNc1ncnc2ccccc12 | 114 | 29100 nM [rising, single point] | 
CN1CCN(S(=O)(=O)c2ccc(NC(=O)C3CCCCC3)cc2)CC1 | 3.19 |  | 92 nM [falling, full curve, poor fit]

— PubChem BioAssay AID2685 (National Center for Advancing Translational Sciences (NCATS), 2010)
